# Measured values as given in publication PMC7819943, “Rice protein-binding microarrays: a tool to detect cis-acting elements near promoter regions in rice”.
# Sequences of proteins named here, by UniProt entry; tags and fusion partners are left off.
# UniProt Q0JBA9, entry or part of it: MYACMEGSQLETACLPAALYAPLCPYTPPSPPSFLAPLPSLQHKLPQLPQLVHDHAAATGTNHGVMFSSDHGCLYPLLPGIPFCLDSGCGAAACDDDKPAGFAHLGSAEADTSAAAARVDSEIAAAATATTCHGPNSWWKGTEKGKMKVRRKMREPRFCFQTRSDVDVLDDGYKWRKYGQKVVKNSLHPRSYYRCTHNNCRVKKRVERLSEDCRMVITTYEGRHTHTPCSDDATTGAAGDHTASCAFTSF
# The other results are listed elsewhere or left out.
# Target: OsWRKY34 (Oryza sativa, UniProt Q0JBA9 1-250)
# Assay: protein-binding microarray (RPBM); PBS, 2% BSA, 51.3 ng/ul salmon testes DNA, 50 uM zinc acetate, 200 nM TF, 25 C, 1 h; high values mean tight binding
# Conditions: protein: recombinant; tags: N-terminal polyhistidine and DsRed monomer fusion (pET32a); label: CyDye5-dUTP incorporated in the synthesized complementary strand; 3' TTTTT single-stranded linker to array surface; dsDNA, one strand shown
# Method in brief: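 Binding signal here means per-feature fluorescence intensity in arbitrary units. The values were read on an Axon 4000B scanner after a custom Agilent array, double-stranded by primer extension with Cy5-dUTP, was incubated with 200 nM protein at 25 °C for 1 h in PBS with 2% BSA, salmon testes DNA and 50 µM zinc acetate, then washed. The proteins were transcription factors with an N-terminal polyhistidine tag and DsRed, expressed in E. coli BL21-CodonPlus and purified on Ni–NTA.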
row,Sequence,binding signal
1,TGTACATGTGTTTGATTTTGCTTGTGGTTGCCGTGGATTTCGGAGTCACCTAGTGCAG,11500 fluorescence intensity (a.u.)
2,CGCCTCTTTTCGTTTCGTTTCGCCGCCCGCTTCCGCCGCGCGGAGTCACCTAGTGCAG,23300 fluorescence intensity (a.u.)
3,GCCGACCGCAGCCTATCTCACCATGTTCTTTTAGGGCAAACGGAGTCACCTAGTGCAG,8890 fluorescence intensity (a.u.)
4,GGTGGGGTAGGGTACCACTACACTCCGGCCTGCCTCCGGACGGAGTCACCTAGTGCAG,8220 fluorescence intensity (a.u.)
5,CACATCAAAACTTTCTTACACACAAACTTCCAACTTTTCCCGGAGTCACCTAGTGCAG,8650 fluorescence intensity (a.u.)
6,AATAGTACGTTACCATCCTCCATATCATCGCTGACGCTTCCGGAGTCACCTAGTGCAG,8110 fluorescence intensity (a.u.)
7,CTCAGCTCGCTTCATCACCTTCCACTCAGTCAATCGCAGCCGGAGTCACCTAGTGCAG,9310 fluorescence intensity (a.u.)
8,AGATCGCTCTTTTGTTGCTGGATTTCTGTTTATTCCGATCCGGAGTCACCTAGTGCAG,8770 fluorescence intensity (a.u.)
9,GATATTGATATGTACAAGTGTATGGACTGTTTTGTTTTGTCGGAGTCACCTAGTGCAG,9380 fluorescence intensity (a.u.)
10,ACCACCACTACCTCGAATCAGCTCATCGTCACCATTTTTCCGGAGTCACCTAGTGCAG,9550 fluorescence intensity (a.u.)
11,AAGCAAGACCCCATCAATCAATCATCGGATACCACCTCTCCGGAGTCACCTAGTGCAG,8630 fluorescence intensity (a.u.)
12,GGTCGACCGCCGCGCCGTCGCCGCCGCCATTCCGCCCACGCGGAGTCACCTAGTGCAG,9560 fluorescence intensity (a.u.)
13,CGCCGCCTGCCCCTGCGCCTGCAGCCTCTGCGCCTCCTGCCGGAGTCACCTAGTGCAG,9380 fluorescence intensity (a.u.)
14,CTTTTGATCATTTCCCACTCGTTTATTGTATTTGGAGTAACGGAGTCACCTAGTGCAG,8300 fluorescence intensity (a.u.)
15,GTCGTCTCATTGGTCAACACCACTTAGGATCCCCACGAGCCGGAGTCACCTAGTGCAG,8550 fluorescence intensity (a.u.)
16,TTGGTATGTTATATACCTATTTTTATTGTGGTAACTTGACCGGAGTCACCTAGTGCAG,8740 fluorescence intensity (a.u.)
17,ATCGCTGGCTTATCATACTCTATTATACCTGCTCTAAGGACGGAGTCACCTAGTGCAG,10000 fluorescence intensity (a.u.)
18,GCCGCGGGACGTCACGCACGCCGACGCACGCTCCCGGCGCCGGAGTCACCTAGTGCAG,8090 fluorescence intensity (a.u.)
19,AACAGGGAATGCTTTATATTTGTACTTTTGGTCCTGTTAACGGAGTCACCTAGTGCAG,8810 fluorescence intensity (a.u.)
20,ATTAACTCTACTTTTTCATCATCCACCCACCCACAAGGACCGGAGTCACCTAGTGCAG,8820 fluorescence intensity (a.u.)
21,TCCTGTCCCTCGTGTTTGTGTCACGTTCGATTCTCCCAAGCGGAGTCACCTAGTGCAG,9280 fluorescence intensity (a.u.)
22,TCCATCTCCTAGCTTTCCTTCCCTTTCTCTCGCTGCTGCTCGGAGTCACCTAGTGCAG,10500 fluorescence intensity (a.u.)
23,AATAGTACGCCCTGTGCATGCCATTCCTTTCGAGTAGTCACGGAGTCACCTAGTGCAG,9450 fluorescence intensity (a.u.)
24,GGTTTTTATCTTTTCTTTTTTTCTTTTTAATTCGGAACCGCGGAGTCACCTAGTGCAG,10100 fluorescence intensity (a.u.)
25,CGAGCACCTTCACTTGCCCGGCCGGCACCAACTACCAGGTCGGAGTCACCTAGTGCAG,9810 fluorescence intensity (a.u.)
26,GGTCACCCAAAACAACGTGTTTAATTACTTCCTTTTCTTTCGGAGTCACCTAGTGCAG,8040 fluorescence intensity (a.u.)
27,ACCATCTCTATTCTTCTTCTGCACCACCATCGCCAGCAGCCGGAGTCACCTAGTGCAG,11500 fluorescence intensity (a.u.)

row,Sequence,binding signal
1,GACTTTTTAGCACATGTTTAACCGTTCGTCTTATTCAAAACGGAGTCACCTAGTGCAG,12100 fluorescence intensity (a.u.)
2,CGTCGGAGCCAACATTATTTTTCTGTTTCCTGTCACCGTCCGGAGTCACCTAGTGCAG,8980 fluorescence intensity (a.u.)
3,TCTCATCTTAGCTTGTCCATTGTCCATATACACTCCTTGCCGGAGTCACCTAGTGCAG,8240 fluorescence intensity (a.u.)
4,TTTTGCGCTCTGCTTTGCTAGCTCGCTTTCTCCGGTGACCCGGAGTCACCTAGTGCAG,8920 fluorescence intensity (a.u.)
5,CCCTTTTTTTGATTTTTAACGCCTTTTCTAAATTATTTTTCGGAGTCACCTAGTGCAG,8390 fluorescence intensity (a.u.)
6,ATTCCTATCAAAATCCTACGTTTTTTCTAATCCTACGTTTCGGAGTCACCTAGTGCAG,9530 fluorescence intensity (a.u.)
7,TACATATACGTATCTCTCACCCTTGCACTGCGCCGGTACACGGAGTCACCTAGTGCAG,9080 fluorescence intensity (a.u.)
8,TTCATTGCTTCATTGCTCCATAGGAATGTTGGTATTCATTCGGAGTCACCTAGTGCAG,8500 fluorescence intensity (a.u.)
9,GATCTATGTTGCTGTTTTTGCATTGTCATTCGTTTGCTCTCGGAGTCACCTAGTGCAG,12000 fluorescence intensity (a.u.)
10,TTTTTCGCCCTTTACAGTCTTCGTCTTCGCTACTCGGCAGCGGAGTCACCTAGTGCAG,9690 fluorescence intensity (a.u.)
11,AGTTGGCTTGCATTTTTTTCTTCGTGTGATAGTGTATTAACGGAGTCACCTAGTGCAG,8990 fluorescence intensity (a.u.)
12,TACATCATGCGTCGCTGCGTCACCATGCTCGTCTGCTGGCCGGAGTCACCTAGTGCAG,8220 fluorescence intensity (a.u.)
13,CTCGCGTTGAATTTGGCTAACTTAGTGTAATAATCGCGCACGGAGTCACCTAGTGCAG,8240 fluorescence intensity (a.u.)
14,AACATGTGTTTTTAGTTAGTTTGTTAATGGAGGTTTTGTTCGGAGTCACCTAGTGCAG,8790 fluorescence intensity (a.u.)
15,TCTCCTCCTAGCTTCACTCTCTCCGCTGCTGCTGCTGCGTCGGAGTCACCTAGTGCAG,9800 fluorescence intensity (a.u.)
16,ATAACTACCTGCACAATTAACCATGCCCGTTTTGTTCTGCCGGAGTCACCTAGTGCAG,8480 fluorescence intensity (a.u.)
17,ATAGCTTCTGGTTTCCGAATATATCTTCTTTTCAAACAGTCGGAGTCACCTAGTGCAG,10800 fluorescence intensity (a.u.)
18,TGCCACCTCGCCGCTAGCTCGCTCTCGCGGTCTCGCCCTCCGGAGTCACCTAGTGCAG,8160 fluorescence intensity (a.u.)
19,TTTTTCTTTCCCCTGTACTGTAGGAGTACTATTTACACAACGGAGTCACCTAGTGCAG,8440 fluorescence intensity (a.u.)
20,TTCTTTCACGCGCGCTCGCCACCGCCCTCCTTGCTCGTCCCGGAGTCACCTAGTGCAG,14100 fluorescence intensity (a.u.)
21,TCTTCTCCCAAGTTGACTCCCGATCCATCACTGGCAATGCCGGAGTCACCTAGTGCAG,8410 fluorescence intensity (a.u.)
22,TTTTTTCCTAAGGCATACATAATTTTAGCTCTTTTTCTTGCGGAGTCACCTAGTGCAG,8590 fluorescence intensity (a.u.)
23,GGATTGGGGCACTTGTTGATGGTATTTCTTAGATTTTCTCCGGAGTCACCTAGTGCAG,12700 fluorescence intensity (a.u.)
24,CCCAGCCAGTTCTTCCTCTGTTTTTTCCCCAGCCGCCCGCCGGAGTCACCTAGTGCAG,8920 fluorescence intensity (a.u.)
25,AGACGTTGACCACATTTCTGGCTGAAAATCCAGTGTTCTTCGGAGTCACCTAGTGCAG,8910 fluorescence intensity (a.u.)
26,TCCACTCCACTCCGCATTTCCACTGCATGGGTCCATTTACCGGAGTCACCTAGTGCAG,12600 fluorescence intensity (a.u.)
27,ACTATAGTCTGCTTTCCGAATTTACCTCTCTGCCGGCCTTCGGAGTCACCTAGTGCAG,15600 fluorescence intensity (a.u.)

# Reformatted: results already given.
row	Sequence	binding signal
5	CCCTTTTTTTGATTTTTAACGCCTTTTCTAAATTATTTTTCGGAGTCACCTAGTGCAG	8390 fluorescence intensity (a.u.)
6	ATTCCTATCAAAATCCTACGTTTTTTCTAATCCTACGTTTCGGAGTCACCTAGTGCAG	9530 fluorescence intensity (a.u.)
7	TACATATACGTATCTCTCACCCTTGCACTGCGCCGGTACACGGAGTCACCTAGTGCAG	9080 fluorescence intensity (a.u.)

# Laid out differently: entries from further up.
row	Sequence	binding signal
20	TTCTTTCACGCGCGCTCGCCACCGCCCTCCTTGCTCGTCCCGGAGTCACCTAGTGCAG	14100 fluorescence intensity (a.u.)
21	TCTTCTCCCAAGTTGACTCCCGATCCATCACTGGCAATGCCGGAGTCACCTAGTGCAG	8410 fluorescence intensity (a.u.)
